For one substance, binding results are on record in patent US20150078996A1 (Merck Sharp & Dohme, published 2015).

By UniProt entry, the sequences of proteins in these tests, tags left out. Residues count along the entry.
UniProt P08069, residues 31-1367: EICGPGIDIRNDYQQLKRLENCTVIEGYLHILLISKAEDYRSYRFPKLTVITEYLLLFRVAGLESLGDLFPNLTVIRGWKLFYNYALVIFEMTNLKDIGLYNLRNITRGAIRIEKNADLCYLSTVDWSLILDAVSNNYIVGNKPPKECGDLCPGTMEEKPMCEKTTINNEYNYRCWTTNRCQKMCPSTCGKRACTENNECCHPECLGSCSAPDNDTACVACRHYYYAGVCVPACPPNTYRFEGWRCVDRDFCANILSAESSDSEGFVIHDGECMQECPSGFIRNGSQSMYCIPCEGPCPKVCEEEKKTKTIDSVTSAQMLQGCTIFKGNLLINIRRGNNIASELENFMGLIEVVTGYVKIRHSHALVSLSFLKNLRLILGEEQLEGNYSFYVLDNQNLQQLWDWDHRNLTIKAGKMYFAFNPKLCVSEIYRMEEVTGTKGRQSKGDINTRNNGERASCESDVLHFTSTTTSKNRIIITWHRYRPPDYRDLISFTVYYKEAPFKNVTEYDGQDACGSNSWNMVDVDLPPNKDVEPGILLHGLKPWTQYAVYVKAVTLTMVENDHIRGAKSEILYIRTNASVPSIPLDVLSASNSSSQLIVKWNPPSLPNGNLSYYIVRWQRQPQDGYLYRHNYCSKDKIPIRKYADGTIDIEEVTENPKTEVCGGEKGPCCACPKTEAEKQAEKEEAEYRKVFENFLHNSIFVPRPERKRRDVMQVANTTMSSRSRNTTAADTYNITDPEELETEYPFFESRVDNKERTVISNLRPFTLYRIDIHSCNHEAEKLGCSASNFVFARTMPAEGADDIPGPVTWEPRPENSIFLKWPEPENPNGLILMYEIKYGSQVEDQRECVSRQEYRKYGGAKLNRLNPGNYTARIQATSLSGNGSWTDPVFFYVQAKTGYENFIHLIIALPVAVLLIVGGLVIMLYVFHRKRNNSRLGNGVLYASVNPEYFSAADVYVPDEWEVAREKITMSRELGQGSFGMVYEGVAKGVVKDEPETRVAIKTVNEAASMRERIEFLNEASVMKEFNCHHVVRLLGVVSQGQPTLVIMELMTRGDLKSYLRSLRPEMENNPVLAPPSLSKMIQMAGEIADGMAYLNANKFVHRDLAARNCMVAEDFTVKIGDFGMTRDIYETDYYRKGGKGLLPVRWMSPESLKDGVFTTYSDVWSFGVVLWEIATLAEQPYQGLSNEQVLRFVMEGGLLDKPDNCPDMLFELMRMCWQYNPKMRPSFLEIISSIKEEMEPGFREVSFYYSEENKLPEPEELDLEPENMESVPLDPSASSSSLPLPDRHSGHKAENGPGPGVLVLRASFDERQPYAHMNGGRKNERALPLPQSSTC
UniProt P01344, residues 25-91: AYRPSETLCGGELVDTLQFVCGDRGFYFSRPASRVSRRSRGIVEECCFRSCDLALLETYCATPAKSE

The target in the experiment is full length hIGF-1R from membrane extracts of NIH 3T3 cells overexpressing IGF-1R (human) (UniProt P08069). Briefly: competition with 100 pM 125I-IGF-1 for hIGF-1R captured by mAb 17-69 on Protein A FlashPlate.

No constants are given. Whether binding was seen depends on the method and setting. Some results given as binding are weak or reduced against the parent protein; the word gives no strength.

Take “IGF-2 (from UniProt P01344 25-91) (ligand)”: the binding result is “binds”.
